Data source: PubChem BioAssay AID504784 (Drosophila RNAi Screening Center, 2011)

Screen: 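Search for regulators of lipid droplet storage in oleate-fed fly cells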 (primary screen)
Cells: Drosophila Kc167 embryonic cells
Reagent: long dsRNA against Drosophila genes, about 250 ng dsRNA per well
Time to read-out: 4 days
Challenge: cells fed 400 µM oleic acid bound to BSA
Detection: 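Cells imaged and segmented; ratio of lipid droplet area to nuclear area, log-transformed, then normalised as a B-score over the screen; higher means more stored lipid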
Direction: droplet/nuclear area B-score: higher = more stored lipid (overstorage)
In all, the deposit lists about 17,000 reagents; this is a random part of those with a known target gene and a result. 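Each column is one replicate's B-score; the combined score over replicates was not deposited, so single values may mislead.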

predicted target	PubChem SID	droplet/nuclear area B-score, replicate 1	droplet/nuclear area B-score, replicate 2	droplet/nuclear area B-score, replicate 3
CG6066 (GeneID 43267)	SID104195751	0.616	-1.07	
CG6066 (GeneID 43267)	SID104201759	3.55	-0.247	
CG11403 (GeneID 31072)	SID104198324	-0.72		
Art2 (GeneID 33631)	SID104180419	-0.227	0.005	
Gr5a (GeneID 44873)	SID104197877	-1.16	0.249	
CG31050 (GeneID 318571)	SID104193675	-0.326	-0.00839	
Wnk (GeneID 40391)	SID104191605	5.26	3.66	
org-1 (GeneID 31778)	SID104198602	-0.813	0.149	
org-1 (GeneID 31778)	SID104202331	1	0.0246	
Neto (GeneID 32303)	SID104198774	-0.114	-1.09	0.337
Neto (GeneID 32303)	SID104199295	0.548	0.329	-1.07
Neto (GeneID 32303)	SID104199508	-2.02	-2.94	0.319
Neto (GeneID 32303)	SID104199509	0.628	-1.14	-0.978
CG4393 (GeneID 42764)	SID104195365	1.38	0.825	

Copied from the list:
Result of Neto (GeneID 32303) [SID104199509] in “droplet/nuclear area B-score, replicate 1”: 0.628
Neto (GeneID 32303) [SID104199295], droplet/nuclear area B-score, replicate 2 → 0.329
org-1 (GeneID 31778) [SID104202331], droplet/nuclear area B-score, replicate 2 → 0.0246
CG11403 (GeneID 31072) [SID104198324], droplet/nuclear area B-score, replicate 1 = -0.72
Under “droplet/nuclear area B-score, replicate 1”, org-1 (GeneID 31778) [SID104198602] is entered as -0.813

The list goes on.
predicted target	PubChem SID	droplet/nuclear area B-score, replicate 1	droplet/nuclear area B-score, replicate 2	droplet/nuclear area B-score, replicate 3
mtDNA-helicase (GeneID 34307)	SID104182704	-0.741	0.0468	
hng3 (GeneID 38090)	SID104188159	0.0946	1.95	
CG12929 (GeneID 35987)	SID104186034	-1.53	0.708	
mRRF2 (GeneID 42670)	SID104195935	-1.39	1.56	
Rab3 (GeneID 36127)	SID104187315	-0.0703	-0.729	
cher (GeneID 42066)	SID104196716	0.115	-0.755	
CG33096 (GeneID 326251)	SID104194232	0.194	-0.233	
Cam (GeneID 36329)	SID104187145	0.268	0.753	1.21
Cam (GeneID 36329)	SID104187146	0.726	1.55	
Tb (GeneID 43212)	SID104195607	1.56	0.474	
kar (GeneID 45883)	SID104194288	-0.417		
Camta (GeneID 35974)	SID104186232	2.15	0.33	
Camta (GeneID 35974)	SID104186233	1.21	-0.537	2.91
Camta (GeneID 35974)	SID104187064	0.00606	0.636	
Camta (GeneID 35974)	SID104202438	0.0319	-1.78	
Camta (GeneID 35974)	SID104202513	-0.951	-0.304	
Cep97 (GeneID 33610)	SID104180429	0.0131	-0.308	
Gyg (GeneID 37419)	SID104183642	0.194	0.706	
Gyg (GeneID 37419)	SID104184348	-1.65	0.339	
Bacc (GeneID 33462)	SID104180527	1.16	0.447	
